According to the supplement of paper PMC10849652:
The other results are listed elsewhere or left out.

Chains of the proteins cited; added tags and fusions are not shown. Lines headed by an entry give the natural chain unless they say otherwise; changes in a name come on top.
UniProt Q9BYK8: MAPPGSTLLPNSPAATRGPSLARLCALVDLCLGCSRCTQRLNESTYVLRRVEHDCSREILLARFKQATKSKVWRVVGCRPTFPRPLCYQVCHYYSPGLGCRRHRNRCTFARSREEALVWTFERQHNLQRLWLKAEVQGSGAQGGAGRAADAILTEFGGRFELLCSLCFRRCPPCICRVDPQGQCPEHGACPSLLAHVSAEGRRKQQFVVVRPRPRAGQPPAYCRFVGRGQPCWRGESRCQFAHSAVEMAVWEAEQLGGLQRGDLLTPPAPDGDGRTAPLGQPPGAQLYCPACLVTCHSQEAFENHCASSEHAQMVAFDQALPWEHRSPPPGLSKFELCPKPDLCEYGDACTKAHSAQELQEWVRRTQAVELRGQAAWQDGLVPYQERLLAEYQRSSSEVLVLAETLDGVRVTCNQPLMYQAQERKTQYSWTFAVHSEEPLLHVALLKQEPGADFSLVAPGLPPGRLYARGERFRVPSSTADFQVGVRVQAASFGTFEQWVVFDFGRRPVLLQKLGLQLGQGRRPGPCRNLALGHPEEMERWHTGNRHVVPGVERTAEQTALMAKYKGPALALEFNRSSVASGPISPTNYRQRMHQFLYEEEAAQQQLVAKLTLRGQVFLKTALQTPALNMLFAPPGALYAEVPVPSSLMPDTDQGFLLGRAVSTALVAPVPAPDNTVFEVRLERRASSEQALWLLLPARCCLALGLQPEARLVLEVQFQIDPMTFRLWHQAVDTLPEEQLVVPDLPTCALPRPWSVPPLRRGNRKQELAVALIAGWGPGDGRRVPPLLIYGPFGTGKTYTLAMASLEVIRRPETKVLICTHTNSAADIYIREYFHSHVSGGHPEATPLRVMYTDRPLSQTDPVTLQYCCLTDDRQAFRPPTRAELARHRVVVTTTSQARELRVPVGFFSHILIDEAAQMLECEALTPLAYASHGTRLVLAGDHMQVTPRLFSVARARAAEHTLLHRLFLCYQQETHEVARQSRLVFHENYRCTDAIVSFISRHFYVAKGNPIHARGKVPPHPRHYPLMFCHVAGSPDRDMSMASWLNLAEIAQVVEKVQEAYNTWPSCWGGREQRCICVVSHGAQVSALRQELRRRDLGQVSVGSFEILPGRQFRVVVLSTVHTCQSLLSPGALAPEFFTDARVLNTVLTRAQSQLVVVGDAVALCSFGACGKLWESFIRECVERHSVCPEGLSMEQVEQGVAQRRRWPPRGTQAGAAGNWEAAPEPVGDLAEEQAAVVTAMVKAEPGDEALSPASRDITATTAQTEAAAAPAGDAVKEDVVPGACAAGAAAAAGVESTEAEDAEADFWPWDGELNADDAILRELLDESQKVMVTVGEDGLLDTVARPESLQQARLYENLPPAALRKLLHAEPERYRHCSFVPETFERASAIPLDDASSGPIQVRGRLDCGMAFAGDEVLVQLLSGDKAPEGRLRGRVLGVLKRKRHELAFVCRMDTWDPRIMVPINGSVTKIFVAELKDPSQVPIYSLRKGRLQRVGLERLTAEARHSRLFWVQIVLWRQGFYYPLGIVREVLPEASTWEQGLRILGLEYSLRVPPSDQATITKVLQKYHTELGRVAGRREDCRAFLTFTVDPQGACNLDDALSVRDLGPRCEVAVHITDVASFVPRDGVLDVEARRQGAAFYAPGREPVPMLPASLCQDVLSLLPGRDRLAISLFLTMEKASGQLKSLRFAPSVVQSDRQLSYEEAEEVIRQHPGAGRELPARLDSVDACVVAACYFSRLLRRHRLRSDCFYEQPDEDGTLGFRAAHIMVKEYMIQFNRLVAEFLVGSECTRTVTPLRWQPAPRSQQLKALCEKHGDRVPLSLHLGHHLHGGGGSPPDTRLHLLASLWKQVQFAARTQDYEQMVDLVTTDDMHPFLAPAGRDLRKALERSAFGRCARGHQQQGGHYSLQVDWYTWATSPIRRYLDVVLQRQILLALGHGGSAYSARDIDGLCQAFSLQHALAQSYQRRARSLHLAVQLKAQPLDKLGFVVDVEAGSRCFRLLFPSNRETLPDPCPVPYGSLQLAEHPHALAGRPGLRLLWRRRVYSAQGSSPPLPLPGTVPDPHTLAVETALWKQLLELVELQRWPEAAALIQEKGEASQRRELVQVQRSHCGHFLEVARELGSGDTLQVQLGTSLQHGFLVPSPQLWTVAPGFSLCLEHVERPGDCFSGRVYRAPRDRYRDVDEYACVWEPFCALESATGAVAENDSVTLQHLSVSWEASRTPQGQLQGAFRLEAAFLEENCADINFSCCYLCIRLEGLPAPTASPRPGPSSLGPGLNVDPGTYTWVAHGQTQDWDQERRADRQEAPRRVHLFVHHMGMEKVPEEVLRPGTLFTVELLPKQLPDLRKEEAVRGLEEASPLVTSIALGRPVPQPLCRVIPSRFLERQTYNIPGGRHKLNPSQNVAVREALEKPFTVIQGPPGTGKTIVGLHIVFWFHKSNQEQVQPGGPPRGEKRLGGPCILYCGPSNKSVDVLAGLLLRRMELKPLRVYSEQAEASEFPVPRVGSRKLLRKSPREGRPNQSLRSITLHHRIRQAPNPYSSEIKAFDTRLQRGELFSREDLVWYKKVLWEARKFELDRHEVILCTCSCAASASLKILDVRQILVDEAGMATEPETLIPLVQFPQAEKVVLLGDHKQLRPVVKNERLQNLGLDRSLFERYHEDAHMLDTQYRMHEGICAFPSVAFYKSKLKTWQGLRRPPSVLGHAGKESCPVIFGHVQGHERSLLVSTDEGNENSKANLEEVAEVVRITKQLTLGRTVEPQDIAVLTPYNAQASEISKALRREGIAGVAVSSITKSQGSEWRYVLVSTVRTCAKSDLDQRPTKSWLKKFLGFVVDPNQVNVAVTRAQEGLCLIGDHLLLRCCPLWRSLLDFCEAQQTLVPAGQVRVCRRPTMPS
UniProt P07910: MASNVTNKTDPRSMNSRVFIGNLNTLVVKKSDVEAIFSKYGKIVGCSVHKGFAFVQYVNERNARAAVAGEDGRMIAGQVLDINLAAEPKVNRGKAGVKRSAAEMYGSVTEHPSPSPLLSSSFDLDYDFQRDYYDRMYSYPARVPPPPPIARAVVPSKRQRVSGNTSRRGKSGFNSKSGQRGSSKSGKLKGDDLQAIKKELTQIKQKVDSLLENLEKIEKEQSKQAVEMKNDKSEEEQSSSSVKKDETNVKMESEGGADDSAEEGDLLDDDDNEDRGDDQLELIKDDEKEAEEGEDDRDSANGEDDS
UniProt P17096: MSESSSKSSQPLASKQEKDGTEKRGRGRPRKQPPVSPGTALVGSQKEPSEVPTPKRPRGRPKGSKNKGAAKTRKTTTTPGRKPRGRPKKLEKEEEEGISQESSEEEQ
UniProt P13747, whole entry, looked up: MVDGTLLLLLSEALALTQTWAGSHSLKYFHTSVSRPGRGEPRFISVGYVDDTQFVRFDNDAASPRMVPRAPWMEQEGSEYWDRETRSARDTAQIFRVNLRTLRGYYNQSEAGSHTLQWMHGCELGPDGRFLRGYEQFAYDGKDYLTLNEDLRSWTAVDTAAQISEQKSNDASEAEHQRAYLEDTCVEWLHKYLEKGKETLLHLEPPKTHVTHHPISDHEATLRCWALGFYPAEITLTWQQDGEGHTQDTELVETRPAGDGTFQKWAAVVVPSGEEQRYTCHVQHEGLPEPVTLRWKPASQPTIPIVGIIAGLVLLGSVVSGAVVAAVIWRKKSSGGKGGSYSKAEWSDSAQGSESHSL
UniProt Q9NSC5: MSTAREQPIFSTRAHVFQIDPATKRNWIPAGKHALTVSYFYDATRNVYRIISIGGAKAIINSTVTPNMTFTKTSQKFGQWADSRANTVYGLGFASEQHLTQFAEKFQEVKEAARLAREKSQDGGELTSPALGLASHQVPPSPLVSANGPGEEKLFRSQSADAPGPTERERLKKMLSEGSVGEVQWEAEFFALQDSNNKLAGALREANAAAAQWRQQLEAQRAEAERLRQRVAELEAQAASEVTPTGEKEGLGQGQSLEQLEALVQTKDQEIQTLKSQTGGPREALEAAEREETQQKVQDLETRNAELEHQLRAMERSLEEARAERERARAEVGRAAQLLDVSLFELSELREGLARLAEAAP
UniProt Q15011: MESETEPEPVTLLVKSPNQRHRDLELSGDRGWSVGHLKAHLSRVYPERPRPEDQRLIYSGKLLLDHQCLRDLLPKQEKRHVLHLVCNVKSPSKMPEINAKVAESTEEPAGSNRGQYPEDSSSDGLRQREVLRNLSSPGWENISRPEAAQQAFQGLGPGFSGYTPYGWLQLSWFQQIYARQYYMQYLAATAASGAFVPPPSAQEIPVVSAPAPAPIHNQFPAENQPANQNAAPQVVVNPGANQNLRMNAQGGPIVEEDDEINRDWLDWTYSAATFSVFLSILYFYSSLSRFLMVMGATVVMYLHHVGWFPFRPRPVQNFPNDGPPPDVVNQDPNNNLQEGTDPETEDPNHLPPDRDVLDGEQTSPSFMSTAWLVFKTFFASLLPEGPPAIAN
UniProt P17483: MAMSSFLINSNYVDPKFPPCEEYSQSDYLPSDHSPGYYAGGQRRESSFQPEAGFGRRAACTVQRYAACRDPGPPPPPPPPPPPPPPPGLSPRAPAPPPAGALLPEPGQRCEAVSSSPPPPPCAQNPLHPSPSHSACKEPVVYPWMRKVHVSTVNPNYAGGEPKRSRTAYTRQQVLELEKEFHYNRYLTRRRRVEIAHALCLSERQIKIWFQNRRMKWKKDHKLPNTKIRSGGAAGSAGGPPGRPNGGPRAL
UniProt Q9Y241: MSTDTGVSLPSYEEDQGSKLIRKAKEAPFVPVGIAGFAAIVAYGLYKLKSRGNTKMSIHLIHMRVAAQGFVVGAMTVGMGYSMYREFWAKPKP
UniProt Q9H2F3: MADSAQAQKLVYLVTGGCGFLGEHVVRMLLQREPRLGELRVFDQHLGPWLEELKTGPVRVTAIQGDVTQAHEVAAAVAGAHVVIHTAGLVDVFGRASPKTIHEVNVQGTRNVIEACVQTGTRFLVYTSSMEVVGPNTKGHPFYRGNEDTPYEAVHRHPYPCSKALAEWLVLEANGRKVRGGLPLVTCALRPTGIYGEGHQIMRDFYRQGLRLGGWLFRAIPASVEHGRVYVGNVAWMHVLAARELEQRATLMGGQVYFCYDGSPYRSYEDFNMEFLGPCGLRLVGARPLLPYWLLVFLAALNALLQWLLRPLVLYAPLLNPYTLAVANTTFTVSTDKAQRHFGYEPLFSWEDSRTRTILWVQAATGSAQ
UniProt Q96MH2: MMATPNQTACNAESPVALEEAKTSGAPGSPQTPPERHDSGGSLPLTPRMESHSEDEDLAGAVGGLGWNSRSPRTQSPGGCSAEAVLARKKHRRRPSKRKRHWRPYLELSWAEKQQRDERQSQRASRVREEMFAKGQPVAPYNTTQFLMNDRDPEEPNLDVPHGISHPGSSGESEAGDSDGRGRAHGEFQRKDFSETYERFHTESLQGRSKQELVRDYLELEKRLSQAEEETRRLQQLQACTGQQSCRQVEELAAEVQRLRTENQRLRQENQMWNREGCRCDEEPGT
UniProt A6NHT5: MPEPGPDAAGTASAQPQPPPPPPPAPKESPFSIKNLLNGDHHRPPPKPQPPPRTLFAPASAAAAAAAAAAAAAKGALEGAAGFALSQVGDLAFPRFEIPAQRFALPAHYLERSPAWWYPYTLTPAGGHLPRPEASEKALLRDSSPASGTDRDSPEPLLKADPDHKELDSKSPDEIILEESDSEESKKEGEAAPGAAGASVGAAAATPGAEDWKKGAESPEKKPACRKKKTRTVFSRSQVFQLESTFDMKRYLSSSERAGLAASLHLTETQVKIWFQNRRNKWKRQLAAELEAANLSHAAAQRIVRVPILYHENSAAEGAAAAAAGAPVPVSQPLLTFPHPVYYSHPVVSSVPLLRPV
UniProt Q9UJC3, whole entry, looked up: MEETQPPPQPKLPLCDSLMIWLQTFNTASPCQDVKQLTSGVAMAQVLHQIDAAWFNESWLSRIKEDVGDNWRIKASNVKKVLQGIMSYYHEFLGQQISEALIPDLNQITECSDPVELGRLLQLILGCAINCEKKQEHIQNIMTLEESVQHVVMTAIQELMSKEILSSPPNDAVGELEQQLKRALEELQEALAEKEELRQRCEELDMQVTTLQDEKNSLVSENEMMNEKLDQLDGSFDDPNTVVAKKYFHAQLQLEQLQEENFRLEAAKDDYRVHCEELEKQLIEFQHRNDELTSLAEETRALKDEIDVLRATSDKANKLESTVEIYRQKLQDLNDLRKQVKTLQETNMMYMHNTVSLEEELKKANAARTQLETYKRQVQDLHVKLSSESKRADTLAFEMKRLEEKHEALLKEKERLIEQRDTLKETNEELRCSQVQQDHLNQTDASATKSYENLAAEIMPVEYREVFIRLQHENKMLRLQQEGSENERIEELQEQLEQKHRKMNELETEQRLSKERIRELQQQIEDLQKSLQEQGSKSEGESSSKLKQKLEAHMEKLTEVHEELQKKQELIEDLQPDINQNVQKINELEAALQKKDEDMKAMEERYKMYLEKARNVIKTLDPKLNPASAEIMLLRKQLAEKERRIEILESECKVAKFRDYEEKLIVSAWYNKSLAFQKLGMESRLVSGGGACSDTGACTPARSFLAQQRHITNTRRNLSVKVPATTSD

What was measured:
Experiment in all cases: log2 fold change, soluble protein after heating vs DMSO (PISA); higher = thermal stabilisation; K562 lysate, 10 uM; active = over 0.2 and 3.5 SD of the protein, either way, in both replicates (recomputed)
[1] = compound: C#Cc1cccc(Nc2ncnc3cc(OCCOC)c(OCCOC)cc23)c1 [erlotinib]
How it was run: (§1)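 Thermal stability, expressed as log-two fold change relative to solvent controls, is given from duplicates. Crude K562 extract in PBS pH 7.4 with 1 mM MgCl2, at 1 mg/mL protein, was treated with 10 μM compound for 30 min and heated in aliquots for 3 min across 48°C-58°C. After pooling, adjustment to 0.5% NP-40 at 4°C and centrifugation at 21,000xg for 90 min, supernatant protein was measured by TMTpro 16plex LC-MS/MS with channel sums equalised.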

[2] = compound: C/C(=N\NC(=O)C1=CC(=CC=C1)S(=O)(=O)N2CCOCC2)/C3=C(C=CC(=C3)Cl)O
How it was run: as §1

[3] = compound: C1=CC(=CC=C1C2=NC3=C(N2)C=C(C=C3)C(=O)N)OC4=CC=C(C=C4)Cl
How it was run: as §1

[4] = compound: C1=CC2=C(C=CC(=C2)/C=C\3/C(=O)NC(=NCC4=CC=CS4)S3)N=C1
How it was run: as §1

[5] = compound: C1=CC=C2C(=C1)C3=NNC4=CC=CC(=C43)C2=O
How it was run: as §1

[6] = compound: CC(C)C1=C2N=C(C=C(N2N=C1)NCC3=CC=CC=C3)NCCCCCCN
How it was run: as §1

[7] = compound: CC1=C(C(CC(=O)N1)C2=CC=C(C=C2)C(F)(F)F)C(=O)NC3=C(C=C4C(=C3)C=NN4)F
How it was run: as §1

[8] = compound: CC1=C(C=C(C=C1)NC(=O)C2=CC(=CC=C2)C(C)(C)C#N)NC3=CC4=C(C=C3)N=CN(C4=O)C
How it was run: as §1

[9] = compound: C1=CC2=NC=CN=C2C=C1/C=C/3\C(=O)NC(=O)S3
How it was run: as §1

[10] = compound: C1=CC=C(C=C1)C2=NC(=C(N2)C3=CC=NC=C3)C4=CC(=C(C=C4)Cl)O
How it was run: as §1

[11] = compound: C1CCN(C1)C(=O)NC2=CC=CC(=C2)NC3=NC=C(C(=N3)NCCC4=CN=CN4)Br
How it was run: as §1

[12] = compound: C1CN(CCC1(CC2=CC=C(C=C2)Cl)N)C3=NC=NC4=C3C=CN4
How it was run: as §1

[13] = compound: C1COCCN1CCN2C3=CC=CC=C3N=C2NC(=O)C4=CC(=CC=C4)[N+](=O)[O-] [IRAK-1-4 Inhibitor I]
How it was run: as §1

[14] = compound: C=CC(=O)N1CCC[C@@H](n2nc(-c3ccc(Oc4ccccc4)cc3)c3c(N)ncnc32)C1 [ibrutinib]
How it was run: as §1

[15] = compound: CC(=O)c1cnc2ccc(-c3cc(Cl)c(O)c(Cl)c3)nc2c1N[C@H]1CC[C@H](CN(C)C)CC1
How it was run: as §1

[16] = compound: CC(C)(C)Cn1c(N)nc2ccc(-c3[nH]c(C(C)(C)C)nc3-c3ccc(F)cc3)nc21 [ralimetinib]
How it was run: as §1

[17] = compound: CC(C)(O)CC(=O)NCCn1ccc2ncnc(Nc3ccc(Oc4cccc(C(F)(F)F)c4)c(Cl)c3)c21
How it was run: as §1

[18] = compound: CC1=C(C2=C(C=C1)C(=O)C3=CC=CC=C3N2CCCN)C
How it was run: as §1

[19] = compound: CC1=C(C=C(C=C1)NC(=O)C2=CC(=CC=C2)N(C)C)NC(=O)C3=CC=C(C=C3)O
How it was run: as §1

[20] = compound: CC1=CC=C(C=C1)SC2=C3C=C(SC3=CN=C2)C(=O)N
How it was run: as §1

Measured: log2 fold change

HELZ2 (UniProt Q9BYK8)
inactive: [1] 0.086 | [2] -0.171 | [3] -0.31 | [4] 0.106 | [5] 0.293 | [6] -0.143 | [7] -0.033 | [8] -0.112

HPS1 (UniProt Q92902)
inactive: [1] 0.008 | [2] -0.027 | [3] 0.089 | [4] -0.083 | [9] 0.005 | [10] -0.054 | [5] -0.043 | [11] -0.088 | [12] 0.084 | [13] 0.016 | [14] 0.034 | [15] 0 | [16] 0.083 | [17] -0.066 | [6] 0.078 | [18] 0.029 | [8] -0.046 | [19] -0.16 | [20] -0.092

HSF1 (UniProt Q00613)
inactive: [1] 0.035 | [2] 0.013 | [3] -0.055 | [4] 0.016 | [9] 0.033 | [10] 0.035 | [5] 0 | [11] -0.037 | [12] -0.012 | [13] -0.019 | [14] 0.019 | [15] -0.035 | [16] 0.006 | [17] 0.004 | [6] -0.005 | [7] 0.01 | [18] 0.03 | [8] 0.006 | [19] 0.028 | [20] 0.001

HNRNPU isoform 2 (UniProt Q00839)
inactive: [18] 0.004

HPS6 (UniProt Q86YV9)
inactive: [11] -0.147 | [12] 0.107 | [7] 0.004 | [18] -0.374 | [8] -0.113

HNRNPC isoform 2 (UniProt P07910)
inactive: [18] -0.106

HMGA1 isoform 2 (UniProt P17096)
inactive: [1] 0.042 | [3] -0.043 | [10] 0.022 | [13] 0 | [15] 0.053 | [16] -0.122 | [17] 0.088 | [6] -0.029 | [7] 0.047 | [18] -0.229 | [8] -0.034 | [19] 0.054 | [20] 0.01

HIC2 isoform 2 (UniProt Q96JB3)
inactive: [8] 0.074

HLA-E (UniProt P13747)
inactive: [1] -0.089 | [3] 0.071 | [11] 0.118 | [12] 0.039 | [6] -0.003

HOMER3 (UniProt Q9NSC5)
inactive: [9] -0.078 | [14] -0.095 | [15] -0.01 | [8] -0.028 | [20] 0.048

Copied from the listing (three entries):
HPS6 (UniProt Q86YV9)
inactive: [11] -0.147 | [12] 0.107 | [7] 0.004 | [18] -0.374 | [8] -0.113

HNRNPC isoform 2 (UniProt P07910)
inactive: [18] -0.106

HMGA1 isoform 2 (UniProt P17096)
inactive: [1] 0.042 | [3] -0.043 | [10] 0.022 | [13] 0 | [15] 0.053 | [16] -0.122 | [17] 0.088 | [6] -0.029 | [7] 0.047 | [18] -0.229 | [8] -0.034 | [19] 0.054 | [20] 0.01

Next entries follow.

HERPUD1 (UniProt Q15011)
inactive: [2] -0.144 | [4] 0.06 | [9] 0.162 | [5] 0.007 | [11] 0.074 | [12] 0.001 | [14] -0.097 | [7] 0

HS6ST1 (UniProt O60243)
inactive: [1] 0.045 | [3] -0.187 | [6] 0.094

HSP90AA2P (UniProt Q14568)
inactive: [11] -0.097 | [12] 0.078 | [8] -0.008

HOXB4 (UniProt P17483)
inactive: [2] -0.107 | [4] -0.025 | [9] -0.022 | [10] -0.251 | [5] -0.087 | [11] 0.036 | [12] 0.064 | [13] -0.151 | [14] 0.007 | [15] -0.004 | [16] -0.087 | [17] 0.049 | [7] -0.092 | [18] 0.059 | [8] 0.009 | [19] 0.017 | [20] 0.067

HP1BP3 isoform 5 (UniProt Q5SSJ5)
inactive: [1] 0.022 | [3] 0.086 | [6] -0.019

HINFP (UniProt Q9BQA5)
inactive: [7] -0.629 | [8] -0.001

HMGXB3 (UniProt Q12766)
inactive: [11] -0.104 | [12] 0.062

HNRNPM (UniProt M0QZM1)
inactive: [2] 0.07 | [4] 0.044 | [9] 0.246 | [5] 0.066 | [11] 0.046 | [12] 0.086 | [14] 0.003 | [18] 0.121 | [8] -0.068

HNRNPM (UniProt M0R019)
inactive: [2] 0.224 | [4] 0.178 | [5] -0.128

HGFAC (UniProt Q04756)
inactive: [7] 0.006

HGF (UniProt P14210)
inactive: [1] -0.347 | [3] 0.058 | [10] -0.142 | [13] 0.124 | [16] 0.097 | [17] -0.081 | [6] -0.001 | [8] 0.087 | [19] -0.031

HP (UniProt P00738)
inactive: [10] 0.869 | [13] -0.373 | [16] -0.21 | [17] 0.62 | [18] -0.001 | [19] 0.032

HMGCR isoform 3 (UniProt P04035)
inactive: [11] -0.174 | [12] 0.053 | [8] -0.018

HLA-DRA
inactive: [11] 0.218 | [12] 0.068

HIGD1A isoform 2 (UniProt Q9Y241)
inactive: [1] -0.039 | [3] 0.014 | [10] -0.004 | [13] 0.004 | [15] -0.121 | [16] 0.136 | [17] -0.026 | [6] 0.039 | [18] -0.045 | [19] -0.099 | [20] -0.002

HPGD (UniProt P15428)
inactive: [11] -0.059 | [12] -0.104 | [18] 0.052

HSD3B7 (UniProt Q9H2F3)
inactive: [7] -0.047

HEXIM2 (UniProt Q96MH2)
inactive: [1] -0.02 | [3] 0 | [10] 0.103 | [13] 0.088 | [16] -0.294 | [17] -0.192 | [6] 0.057 | [18] -0.059 | [8] 0.008 | [19] 0.02

HNRNPD (UniProt D6RF44)
inactive: [7] 0.111 | [8] -0.334

HMX3 (UniProt A6NHT5)
inactive: [1] 0.025 | [3] 0.028 | [6] -0.013

HMCN1 (UniProt Q96RW7)
inactive: [2] 0.131 | [4] -0.069 | [9] -0.037 | [10] 0.033 | [5] -0.003 | [13] 0.16 | [14] -0.007 | [16] -0.201 | [17] -0.34 | [7] 0.154 | [19] 0.025

HOOK1 (UniProt Q9UJC3)
inactive: [1] 0.11 | [3] 0.142 | [6] -0.027 | [18] -0.007

HNRNPL, A0A3B3ITJ4
inactive: [9] -0.086 | [14] 0.033 | [15] 0.033 | [20] -0.104

HMGN5 (UniProt Q5JSK9)
inactive: [9] -0.128 | [11] 0.008 | [12] -0.076 | [14] 0.051 | [15] -0.007 | [7] -0.094 | [20] -0.005

HERC3 (UniProt Q15034)
inactive: [10] -0.02 | [11] -0.082 | [12] 0.06 | [13] 0.059 | [16] 0.032 | [17] -0.062 | [18] 0.279 | [8] -0.012 | [19] -0.011

HSF2 (UniProt Q03933)
inactive: [2] -0.183 | [4] -0.116 | [10] -0.048 | [5] 0.032 | [11] -0.094 | [12] 0.053 | [13] -0.019 | [16] 0.012 | [17] 0.023 | [18] -0.024 | [19] 0.081

HIGD2A (UniProt Q9BW72)
inactive: [7] 0.006 | [18] -0.069 | [8] -0.099
